# Measurements: PubChem BioAssay AID504467 (National Center for Advancing Translational Sciences (NCATS), 2011)
# In all, about 330,000 compounds went through this assay and about 7,700 (2.3%) were called active. Inconclusive results, whose numbers are uncertain, are shown with a selection of clear calls. The call rests on the fitted dose curve; in most records, active means well fitted inhibition curve with a large enough effect; inconclusive means small, poorly fitted or top-dose-only effect, or effect the other way; inactive means flat fitted curve, though single readings scatter. A potency beside an inconclusive call is a rough fit, not a confirmed value.
# Experiment: qHTS screen for small molecules that inhibit ELG1-dependent DNA repair in human embryonic kidney (HEK293T) cells expressing luciferase-tagged ELG1; further: nearly all actives have a fitted effect of over 55% in size
# Settings: HEK293T ELG1-luciferase reporter, luminescence, 16 h, DNA damage induced by 5-fluorouridine; series mostly up to 46.1 µM
# Procedure, shortened: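 Overnight (16 hr) co-exposure of 2,000 cells/well to 5-fluorouridine and compound at 37 °C preceded detection. Luciferase was quantified via ONE-Glo luminescence; loss of signal denotes inhibition.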
# Potency means the concentration at half of the fitted maximal effect.
row,SMILES,Potency
1,O=C(O)CCC(=O)Nc1nc2nccc(-c3ccccc3)n2n1,inactive
2,O=C(c1cn(-c2ccccc2)nc1-c1cccs1)N(CCO)Cc1ccccc1,"inconclusive: 18.4 µM [inhibitor, single point]"
3,O=C(N/N=C/c1c[nH]c2ccccc12)c1ccn[nH]1,"inconclusive: 29.1 µM [activator, single point]"
4,CCCC[C@@H](CNC)NC[C@H](Cc1ccc(O)cc1)NCCc1ccc(OCC)cc1,inactive
5,Cc1ccc(-n2c(-c3ccncc3)n[nH]c2=S)cc1C,inactive
6,O=C(Nc1ccc(O)c(C(=O)O)c1)c1ccc2c(c1)C(=O)N(CC1CCCO1)C2=O (stereo unspecified),inactive
7,CCOc1ccc(NC(=O)CSc2nncn2C)cc1,"inconclusive: 16.4 µM [activator, partial curve]"
8,CC1CCCC(NC(=O)COC(=O)/C=C/c2ccc(F)cc2)C1C (stereo unspecified),"inconclusive: 25.9 µM [inhibitor, single point]"
9,O=C(NCCC(=O)N1CCCC1)c1ccccc1Cl,"inconclusive: 20.6 µM [activator, single point]"
10,COc1ccc(N/C=C\C(=O)c2ccc(C)cc2)cc1OC,"inconclusive: 23.1 µM [activator, single point]"
11,Cc1ccc(Nc2nc(N)nc(CSc3nccn3C)n2)c(C)c1,"inconclusive: 18.4 µM [activator, partial curve]"
12,CCC1Sc2ccc(S(=O)(=O)Nc3cc(OC)cc(OC)c3)cc2NC1=O (stereo unspecified),"inconclusive: 11.6 µM [inhibitor, partial curve, poor fit]"
13,CN1C2C=C3C(C#N)=C(N)C(C#N)(C#N)[C@@H](c4cccc(F)c4)[C@@H]3C1CC2 (stereo partly specified),inactive
14,COc1ccc(/C=C/C(=O)NC(=S)Nc2ccc(S(=O)(=O)Nc3ccc(OC)nn3)cc2)cc1,inactive
15,NCCSc1c(-c2ccccc2)[nH]c2ccccc12,inactive
16,FC(F)Oc1ccc(N=C2SCC3CCCCN23)cc1 (stereo unspecified),"inconclusive: 5.17 µM [activator, partial curve]"
17,CS/C(=C/[N+](=O)[O-])Nc1cccc2c1C(C)CC2(C)C (stereo unspecified),inactive
18,COc1ccc(C(=O)Nc2cc(Cl)cc(Cl)c2)c(OC)n1,"inconclusive: 8.2 µM [activator, partial curve]"
19,COc1cccc(C2CC(c3cccc(Br)c3)n3nc(N)nc3N2)c1 (stereo unspecified),"inconclusive: 14.6 µM [activator, single point]"
20,Cc1ccc(NC(=O)c2c(C(=O)Nc3ccccc3)sc3nc(C)cc(=O)n23)cc1,inactive
21,Cn1cnc2c(NCc3ccco3)ncnc21,inactive
22,Cc1ccccc1NC(=O)CCOc1ccccc1,"inconclusive: 20.6 µM [activator, partial curve]"
23,Fc1ccc(N2CCN(Cc3c[nH]c4ccccc34)CC2)cc1,"inconclusive: 23.1 µM [inhibitor, partial curve, poor fit]"
24,CCN(CC)CC(C(=O)N(CC)CC)P(=O)(c1ccccc1)c1ccccc1 (stereo unspecified),"inconclusive: 1.16 µM [inhibitor, single point]"

# Shown as tab-separated lines: entries from further up
row	SMILES	Potency
3	O=C(N/N=C/c1c[nH]c2ccccc12)c1ccn[nH]1	inconclusive: 29.1 µM [activator, single point]
4	CCCC[C@@H](CNC)NC[C@H](Cc1ccc(O)cc1)NCCc1ccc(OCC)cc1	inactive
6	O=C(Nc1ccc(O)c(C(=O)O)c1)c1ccc2c(c1)C(=O)N(CC1CCCO1)C2=O (stereo unspecified)	inactive
7	CCOc1ccc(NC(=O)CSc2nncn2C)cc1	inconclusive: 16.4 µM [activator, partial curve]
9	O=C(NCCC(=O)N1CCCC1)c1ccccc1Cl	inconclusive: 20.6 µM [activator, single point]
10	COc1ccc(N/C=C\C(=O)c2ccc(C)cc2)cc1OC	inconclusive: 23.1 µM [activator, single point]
11	Cc1ccc(Nc2nc(N)nc(CSc3nccn3C)n2)c(C)c1	inconclusive: 18.4 µM [activator, partial curve]
14	COc1ccc(/C=C/C(=O)NC(=S)Nc2ccc(S(=O)(=O)Nc3ccc(OC)nn3)cc2)cc1	inactive
16	FC(F)Oc1ccc(N=C2SCC3CCCCN23)cc1 (stereo unspecified)	inconclusive: 5.17 µM [activator, partial curve]
17	CS/C(=C/[N+](=O)[O-])Nc1cccc2c1C(C)CC2(C)C (stereo unspecified)	inactive
21	Cn1cnc2c(NCc3ccco3)ncnc21	inactive
22	Cc1ccccc1NC(=O)CCOc1ccccc1	inconclusive: 20.6 µM [activator, partial curve]
24	CCN(CC)CC(C(=O)N(CC)CC)P(=O)(c1ccccc1)c1ccccc1 (stereo unspecified)	inconclusive: 1.16 µM [inhibitor, single point]

# (next part)

row,SMILES,Potency
1,COc1cc2cc(C(=O)Nc3ccc4c(c3)OCCO4)[nH]c2cc1OC,"inconclusive: 9.2 µM [activator, partial curve]"
2,S=C(NCc1ccco1)N1CCOCC1,"inconclusive: 16.4 µM [inhibitor, single point]"
3,Cc1ccccc1OCC(=O)Nc1ccc(N2CCN(C(=O)c3ccco3)CC2)cc1,active: 20.6 µM
4,CC(=O)Nc1ccc(S(=O)(=O)N[C@@H](C)C(=O)OCC(=O)c2ccc(C)cc2)cc1,"inconclusive: 6.51 µM [inhibitor, single point]"
5,Cc1c(C(N)=O)sc2ncn(CCOc3ccccc3)c(=O)c12,"inconclusive: 18.3 µM [activator, partial curve, poor fit]"
6,COC(=O)Cc1nnc(Nc2cccc(C)c2)c2ccccc12,"inconclusive: 18.3 µM [inhibitor, single point]"
7,COc1ccccc1N1CCN(C(=O)c2c(-c3c(F)cccc3Cl)noc2C)CC1,"inconclusive: 29.1 µM [inhibitor, partial curve]"
8,CC12CCC(=O)N1C(C(=O)NNC(=O)c1ccc(F)cc1)CS2 (stereo unspecified),inactive
9,CC(=O)N1CCN(c2ccc(NC(=O)c3cccc(OCc4ccccc4)c3)cc2)CC1,"inconclusive: 29.1 µM [inhibitor, single point]"
10,CCOC(=O)c1ccc2ncc(-c3ccccc3)nc2c1,"inconclusive: 23.1 µM [activator, partial curve]"
11,CCCCNC(=O)c1ccccc1NC(=O)c1ccc2c(c1)OCO2,"inconclusive: 29.1 µM [inhibitor, single point]"
12,CCOc1nc(-c2ccccc2Cl)nc2ccccc12,"inconclusive: 29.1 µM [inhibitor, single point]"
13,COc1ccc(C2c3ccc(O)cc3Oc3ncn4nc(-c5ccccn5)nc4c32)cc1OC (stereo unspecified),active: 20.6 µM
14,Cc1cc(N2CCOCC2)ccc1/C=C1\NC(=O)N(Cc2ccccc2)C1=O,"inconclusive: 14.6 µM [inhibitor, partial curve]"
15,CCC(C)Sc1ccc(-c2nc3ccc(Cl)cn3c2NCc2ccccc2)cc1 (stereo unspecified),"inconclusive: 18.3 µM [activator, partial curve]"
16,Cc1cc2c(cc1[N+](=O)[O-])NC(CNC(C)C)CC2 (stereo unspecified),inactive
17,O=C(C[C@H]1C[C@H](C(=O)N2CCOCC2)[C@@]2(CCC3CCCC3)c3[nH]c4cc(-c5ccco5)ccc4c3CCN2C1=O)NCCc1ccccn1,"inconclusive: 29.1 µM [inhibitor, single point]"
18,CCOc1cccc(C(=O)Nc2ccc(N(CC)CC)cc2)c1,inactive
19,CCOCCCNC(=S)N1CCC(NC(=O)C23CC4CC(CC(C4)C2)C3)CC1,inactive
20,O=C(Cc1c[nH]c2ccccc12)Nc1ccccc1N1CCOCC1,inactive
21,Cc1ccc(/C=N/NC(=O)c2c(-c3ccccc3)noc2C)o1,inactive
22,Cc1ccc(C(=O)N/C(=C/c2cccs2)C(=O)NCc2ccco2)cc1,inactive
23,Clc1ccc(CNC2CCN(Cc3ccccc3)CC2)cc1,inactive
24,Cc1cc(NC(=O)CSc2ccc(-c3ccc(Br)cc3)nn2)no1,"inconclusive: 20.6 µM [activator, partial curve]"

row,SMILES,Potency
1,Cc1ccc(C)n1-c1ccc(N2CCOCC2)c(Br)c1,"inconclusive: 29.1 µM [inhibitor, partial curve, poor fit]"
2,Cc1ccc2nc(SCC(=O)N3c4ccccc4CC3C)c(C)cc2c1 (stereo unspecified),inactive
3,COc1ccc(-c2cc3ccc(OCC(C)=O)cc3oc2=O)cc1,"inconclusive: 8.2 µM [activator, partial curve]"
4,O=C(CNC(=O)C1CCCCC1)Nc1ccc(Cl)cc1,"inconclusive: 13 µM [activator, partial curve]"
5,Cc1ccc(S(=O)(=O)N2CCCC2C(=O)NCCc2nc3ccccc3[nH]2)cc1 (stereo unspecified),"inconclusive: 29.1 µM [inhibitor, single point]"
6,Cc1ccc(NC(=O)Cn2sc3nc(C)cc(C)c3c2=O)c(Cl)c1,"inconclusive: 25.9 µM [activator, single point]"
7,CN(Cc1ccc(Cl)cc1)C(=O)c1cc(S(=O)(=O)N2CCOCC2)ccc1N1CCCC1,"inconclusive: 20.6 µM [inhibitor, single point]"
8,CC1CCN(S(=O)(=O)c2cnc(Cl)c(Br)c2)CC1,"inconclusive: 14.6 µM [inhibitor, partial curve, poor fit]"
9,Cc1ccc(O)c(NC(=O)CN(C)S(=O)(=O)c2ccc(Cl)cc2)c1,"inconclusive: 1.83 µM [activator, partial curve, poor fit]"
10,COc1ccc(-c2csc(=Nc3ccccc3)n2CCO)cc1,"inconclusive: 23.1 µM [activator, partial curve, poor fit]"
11,COc1ccccc1N1C[C@@H]2C[C@@H](c3ccco3)N3CCC[C@@]23C1=O,inactive
12,CN(C)Cc1c(C(=O)N/N=C/c2cccc(OCc3c(F)cccc3Cl)c2)nnn1-c1nonc1N,inactive
13,C/C=C(/C)C(=O)O[C@@H]1[C@H](OC(=O)C=C(C)C)c2c(ccc3ccc(=O)oc23)OC1(C)C,inactive
14,Cc1ccc(NC(=O)CSCC(=O)Nc2ccccc2N2CCCC2)cc1,"inconclusive: 29.1 µM [activator, single point]"
15,O=C(NCCSc1ccccc1)c1ccccc1Cl,"inconclusive: 11.6 µM [activator, partial curve]"
16,CCc1cc(C(=O)N2CCCC(C(=O)c3cccc4ccccc34)C2)n(C)n1 (stereo unspecified),"inconclusive: 10.3 µM [inhibitor, partial curve, poor fit]"
17,COc1cc(-c2nnc(NC(=O)CCS(=O)(=O)c3ccccc3)o2)cc(OC)c1OC,"inconclusive: 20.6 µM [activator, partial curve, poor fit]"
18,COc1cc(/C=C/C(=O)O)ccc1OS(=O)(=O)c1c(C)cc(C)cc1C,"inconclusive: 22.4 µM [inhibitor, partial curve, poor fit]"
19,CCc1ccc(CNC(=O)C2CCN(S(=O)(=O)N3CCCC3)CC2)cc1,inactive
20,CCc1c(C)sc(NC(=O)c2cc(C)no2)c1C#N,"inconclusive: 20.6 µM [activator, single point]"
21,Cc1cc(C)c(-c2cc(NC(=O)CSc3nncn3C)n(-c3ccccc3)n2)cc1C,"inconclusive: 32.6 µM [inhibitor, single point]"
22,Oc1ccccc1/C=N/NC(=S)NCCc1ccccc1,inactive
23,O=C(COC(=O)C1CCC(=O)N1)Nc1cccc([N+](=O)[O-])c1 (stereo unspecified),"inconclusive: 16.4 µM [activator, partial curve, poor fit]"
